## Screening data, single-dose tests

Protein sequences, listed by entry. Tags and fused reporters are not part of them. Residues count along the entry.
UniProt I6X8D2, whole entry: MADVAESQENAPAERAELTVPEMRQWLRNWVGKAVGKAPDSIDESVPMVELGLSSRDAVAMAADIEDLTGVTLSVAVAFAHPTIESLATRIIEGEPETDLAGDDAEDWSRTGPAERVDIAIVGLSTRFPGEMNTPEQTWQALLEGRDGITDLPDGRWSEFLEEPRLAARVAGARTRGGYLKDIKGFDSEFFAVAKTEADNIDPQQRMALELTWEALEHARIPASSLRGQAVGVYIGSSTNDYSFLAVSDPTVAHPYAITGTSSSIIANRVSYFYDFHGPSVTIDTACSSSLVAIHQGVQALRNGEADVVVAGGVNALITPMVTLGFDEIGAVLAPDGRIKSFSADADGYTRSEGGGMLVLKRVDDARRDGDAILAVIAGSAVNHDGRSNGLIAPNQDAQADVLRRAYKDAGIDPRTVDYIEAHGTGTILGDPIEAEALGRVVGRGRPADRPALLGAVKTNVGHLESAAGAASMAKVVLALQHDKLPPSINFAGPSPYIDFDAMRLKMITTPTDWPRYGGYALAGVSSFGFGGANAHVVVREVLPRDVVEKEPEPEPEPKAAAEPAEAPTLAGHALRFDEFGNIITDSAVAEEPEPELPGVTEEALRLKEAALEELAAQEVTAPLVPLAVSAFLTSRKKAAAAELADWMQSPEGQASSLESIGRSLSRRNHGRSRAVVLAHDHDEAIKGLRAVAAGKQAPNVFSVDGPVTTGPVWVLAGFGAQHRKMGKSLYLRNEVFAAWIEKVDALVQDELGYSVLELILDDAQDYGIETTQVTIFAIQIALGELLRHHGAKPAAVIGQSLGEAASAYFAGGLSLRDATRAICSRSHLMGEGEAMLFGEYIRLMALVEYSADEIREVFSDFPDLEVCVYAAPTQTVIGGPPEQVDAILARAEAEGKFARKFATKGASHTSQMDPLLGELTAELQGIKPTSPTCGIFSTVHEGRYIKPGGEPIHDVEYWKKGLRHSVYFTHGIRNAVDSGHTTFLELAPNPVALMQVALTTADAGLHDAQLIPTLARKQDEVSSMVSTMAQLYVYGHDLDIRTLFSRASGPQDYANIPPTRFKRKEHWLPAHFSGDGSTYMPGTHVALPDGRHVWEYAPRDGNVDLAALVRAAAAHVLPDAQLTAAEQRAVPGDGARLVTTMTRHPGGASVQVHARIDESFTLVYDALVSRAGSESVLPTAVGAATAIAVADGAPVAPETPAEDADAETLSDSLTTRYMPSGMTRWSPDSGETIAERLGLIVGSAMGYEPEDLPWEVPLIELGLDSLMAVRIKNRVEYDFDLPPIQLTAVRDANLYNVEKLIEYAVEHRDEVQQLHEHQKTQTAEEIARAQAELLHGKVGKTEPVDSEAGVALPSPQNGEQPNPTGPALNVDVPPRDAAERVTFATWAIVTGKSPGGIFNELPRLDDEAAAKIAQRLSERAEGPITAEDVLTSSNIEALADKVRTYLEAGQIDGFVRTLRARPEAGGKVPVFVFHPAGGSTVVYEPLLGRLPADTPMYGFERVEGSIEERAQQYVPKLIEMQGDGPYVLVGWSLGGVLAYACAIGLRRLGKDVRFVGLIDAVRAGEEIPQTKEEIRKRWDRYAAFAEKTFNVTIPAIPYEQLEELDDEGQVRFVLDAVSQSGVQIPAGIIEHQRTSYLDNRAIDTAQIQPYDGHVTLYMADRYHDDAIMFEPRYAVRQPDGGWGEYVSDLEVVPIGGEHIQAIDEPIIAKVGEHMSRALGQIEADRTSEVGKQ
UniProt A4I591, 1-473: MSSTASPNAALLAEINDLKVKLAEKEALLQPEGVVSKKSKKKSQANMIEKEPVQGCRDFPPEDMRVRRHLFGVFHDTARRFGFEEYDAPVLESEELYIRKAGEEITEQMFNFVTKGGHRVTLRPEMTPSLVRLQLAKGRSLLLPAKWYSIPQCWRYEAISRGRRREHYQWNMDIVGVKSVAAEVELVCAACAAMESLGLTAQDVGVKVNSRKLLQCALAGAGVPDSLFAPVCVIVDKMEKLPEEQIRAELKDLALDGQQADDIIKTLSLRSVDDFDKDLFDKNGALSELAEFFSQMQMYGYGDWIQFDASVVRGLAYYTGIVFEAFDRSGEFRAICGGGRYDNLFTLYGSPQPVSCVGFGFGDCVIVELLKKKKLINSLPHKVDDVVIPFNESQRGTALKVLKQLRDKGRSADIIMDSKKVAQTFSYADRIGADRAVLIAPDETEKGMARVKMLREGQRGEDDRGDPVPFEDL
UniProt P9WPC5, whole entry: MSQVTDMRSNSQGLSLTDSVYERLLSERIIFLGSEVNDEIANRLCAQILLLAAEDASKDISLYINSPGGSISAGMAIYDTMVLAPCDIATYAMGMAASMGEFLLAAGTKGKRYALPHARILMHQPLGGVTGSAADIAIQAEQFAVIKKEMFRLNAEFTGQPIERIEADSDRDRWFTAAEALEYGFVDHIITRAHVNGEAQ
UniProt P9WPC3, whole entry partner: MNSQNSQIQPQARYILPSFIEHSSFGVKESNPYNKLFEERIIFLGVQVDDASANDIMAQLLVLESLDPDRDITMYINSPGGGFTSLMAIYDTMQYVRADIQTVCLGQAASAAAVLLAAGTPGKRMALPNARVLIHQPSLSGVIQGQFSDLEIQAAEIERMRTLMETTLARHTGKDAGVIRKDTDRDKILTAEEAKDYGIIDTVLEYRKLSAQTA
UniProt P9WNZ1, whole entry: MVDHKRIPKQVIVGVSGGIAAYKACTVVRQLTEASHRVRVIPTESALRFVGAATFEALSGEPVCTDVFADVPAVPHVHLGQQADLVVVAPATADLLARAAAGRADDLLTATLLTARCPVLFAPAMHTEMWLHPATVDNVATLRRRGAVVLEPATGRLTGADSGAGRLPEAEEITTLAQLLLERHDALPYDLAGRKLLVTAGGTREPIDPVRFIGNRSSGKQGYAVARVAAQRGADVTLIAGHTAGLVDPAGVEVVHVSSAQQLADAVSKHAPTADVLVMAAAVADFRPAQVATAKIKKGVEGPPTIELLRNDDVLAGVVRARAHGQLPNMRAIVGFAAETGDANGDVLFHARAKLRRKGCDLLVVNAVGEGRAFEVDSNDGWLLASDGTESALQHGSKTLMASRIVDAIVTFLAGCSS

The values are deposited in ChEMBL (CHEMBL3988442, “University of Dundee, Small-Polar-MMV Screening Library” (2021)).

Pks13 thioesterase: 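Polyketide synthase Pks13, Mycobacterium tuberculosis (UniProt I6X8D2). Enzyme assay of the thioesterase domain of polyketide synthase 13; the read-out is not stated. Compounds at 30 µM. The record gives no direction; the compounds picked for IC50 retests had high values, so higher reads as stronger inhibition. Size under these conditions: about 67,000 compounds, about 300 of them at 50% or above in at least one test.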
LiHisRS: 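Histidine-tRNA ligase, Leishmania infantum (UniProt A4I591). Enzyme assay of histidyl-tRNA synthetase; the read-out is not stated. Compounds at 30 µM. The record gives no direction; compounds that gave an IC50 in retests scored well above the rest, so higher reads as stronger inhibition. The assay is labelled LdHisRS but filed under L. infantum. Of about 69,000 compounds tested this way, about 410 (0.6%) reached 50% or more in at least one test.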
Leishmania in macrophages: 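Cell assay of Leishmania donovani living inside macrophages; the read-out is not stated. Tested at 30 µM. Higher reads as stronger inhibition (inferred: compounds with an IC50 in retests scored well above the rest). Of about 69,000 compounds tested this way, about 1,000 (1.5%) reached 50% or more in at least one test.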
ClpP1P2: 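ClpP1P2, Mycobacterium tuberculosis (UniProt P9WPC5 and UniProt P9WPC3). Protease assay of ClpP1P2, read by the AMC dye that it sets free. Tested at 50 µM. Higher reads as stronger inhibition, judged from the few compounds that gave an IC50. Most other retested compounds had strongly negative values. About 69,000 compounds were tested under these conditions; 0.015% (about 10) showed 50% or more at least once.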
Toxoplasma: 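Assay of Toxoplasma gondii numbers, read through their beta-galactosidase reporter with a colour substrate. Tested at 10 µM. The record gives no direction; the compounds picked for IC50 retests had high values, so higher reads as fewer parasites. Size under these conditions: about 67,000 compounds, about 260 of them at 50% or above in at least one test.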
CoaBC: 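Coenzyme A biosynthesis protein CoaBC, Mycobacterium tuberculosis (UniProt P9WNZ1). Enzyme assay of CoaBC with a phosphate dye (Biomol Green) read at 650 nm. Compounds at 30 µM. Higher reads as stronger inhibition, judged from the few compounds that gave an IC50. Most strong results did not repeat in a second test. Size under these conditions: about 67,000 compounds, about 40 of them at 50% or above in at least one test.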

Results are given as percent effect. How 0% and 100% were set is not recorded. Most values in the screen are low, and negative values occur. Compounds were drawn at random from those tested, without regard to their results. Two or more numbers in one place are separate tests of the same structure; such repeats can differ widely. A dash means the value is not listed here; it may have been measured.

| # | Compound | Pks13 thioesterase | LiHisRS | Leishmania in macrophages | ClpP1P2 | Toxoplasma | CoaBC |
|---|---|---|---|---|---|---|---|
| 1 | `N#Cc1cccnc1OC1CCN(C(=O)c2cc(C3CC3)on2)CC1` | -26.53 | 5.217 | -6.591 and 7.053 | 0.9121 | 5.792 | 3.594 |
| 2 | `CCn1ncnc1CN1CCOC(Cc2cccc3ccccc23)C1` (stereo unspecified) | -43.01 | 10.26 | 7.554 | -21.33 | 18.59 | 15.81 |
| 3 | `Cc1noc([C@@]23CCO[C@@H]2CCN(Cc2scnc2C)C3)n1` | -8.642 | 5.941 | - | 2.226 | - | 4.579 |
| 4 | `CN(C)Cc1ccc(C2CCCCN2C(=O)c2cccc(CO)n2)cc1` (stereo unspecified) | -20.81 | 17.14 | 9.218 | -15.2 | -0.5515 | 2.193 |
| 5 | `O=C(O)C(F)(F)F.[H][C@@]12CCCO[C@]1([H])[C@H](OCc1cccnc1)CN2C(=O)N1CCCC1` | - | - | 7.484 | - | -0.7729 | - |
| 6 | `OC(COCc1ccco1)CN1CCC(Cn2cccn2)CC1` (stereo unspecified) | 2.59 | -2.439 | -13.59 | -9.588 | 16.88 | 4.962 |
| 7 | `Cc1nc(COC[C@@H]2CCC[C@@]23CNCCO3)cs1` | -9.11 | 3.922 | - | 15.59 | - | -0.1287 |
| 8 | `[H][C@]12C[C@@H](Cn3cncn3)N(C(C)=O)[C@@]1([H])CCN(c1ncccn1)C2` | - | - | 20.02 | - | 3.941 | - |
| 9 | `O=C(NCCNc1ncccn1)c1ccc(OCc2ccccc2)nc1` | 11.31 | 6.25 | 14.93 | -8.088 | 1.018 | 8.73 |
| 10 | `O=C(Nc1ccc2c(c1)OC1(CCCC1)O2)c1ccc(=O)[nH]n1` | -24.96 | 7.937 | 8.944 | 2.85 | 4.897 | 4.862 |
| 11 | `NC(=O)COc1ccc(CN2CCNC(C(=O)NC3CC3)C2)cc1Cl` (stereo unspecified) | -7.653 | 14.17 | 28.44 | -15.17 | -19.12 | -1.615 |
| 12 | `CCOc1ccc(CN2CCC(c3nc(C)cc(C)n3)C2)cc1CO` (stereo unspecified) | -3.867 | 8.696 | 20.63 | -11.1 | 8.624 | -3.154 |
| 13 | `Cc1cccc(NCCNc2ccc(C#N)cn2)n1` | -4.364 | 6.612 | 24.81 | -12.21 | -37.78 | 0.1248 |
| 14 | `Cc1cc(-c2cnc(N3CCNC(=O)C3)nc2-c2cccnc2C)on1` | -21.64 | -18.25 | -19.99 | 0.8236 | -4.603 | -7.772 |
| 15 | `N#Cc1ccccc1OCCN1CCCC1Cn1cncn1` (stereo unspecified) | -7.603 | 7.895 | 17.32 | -31.04 | 23.45 | -1.979 |
| 16 | `COc1ccc(F)c(CN2CCCC(O)(CNCc3ccon3)C2=O)c1` (stereo unspecified) | -11.42 | 8.571 | 10.51 | 8.83 | 14.72 | 2.376 |
| 17 | `CCC[C@H]1CN(S(C)(=O)=O)C[C@@H]1NC(=O)COC(C)C` | -31.04 | 11.29 | 32.04 | -13.03 | -24.48 | 1.603 |
| 18 | `Cc1ncccc1Oc1nccnc1C1CCN(S(C)(=O)=O)CC1` | 7.263 | 18.84 | 10.83 and 11.24 | -0.03769 | 0.1436 | -1.456 |
| 19 | `O=C(c1ccc[nH]1)N1CCOCC2(CCN(C3CCOCC3)C2)C1` (stereo unspecified) | 11.56 | 23.08 | 19.52 | 1.584 | -2.493 | 6.767 |
| 20 | `N#CC1(C(=O)N2CCCN(c3nccs3)CC2)CCCC1` | -15.6 | 21.43 | 21.07 | -17.61 | -4.161 | 5.703 |
| 21 | `Cc1cc(C)n(-c2cncc(NCCNC(=O)c3cccnc3)n2)n1` | 2.443 | 20.51 | 36.55 and -6.325 | -5.227 | -0.8355 | 1.018 |
| 22 | `COc1ncc(C(=O)N2CCC(c3nc(C)n4ccsc34)CC2)cn1` | -9.444 | 18.56 | 10.47 and 7.013 | 17 | -14.7 | 3.632 |
| 23 | `CC(Oc1ccccc1C(F)(F)F)C(=O)NCC(=O)N1CCCC1` (stereo unspecified) | -4.166 | 16.13 | 25.72 | -17.76 | -0.2818 | 0.978 |
| 24 | `CSC(C)C(=O)N1CCCN(Cc2cnn(C(C)C)c2)CC1` (stereo unspecified) | -3.466 | 4.762 | 7.804 | 3.07 | -0.2872 | 1.779 |
| 25 | `O=S(=O)(Cc1ccccc1)N1CCCn2cnc(CN3CCCC3)c2C1` | -8.085 | 26.42 | - | -5.831 | - | 4.188 |
| 26 | `CCc1nn(C)c(Cl)c1CN1CCC(Cc2nncn2C)CC1` | -8.728 | 2 | 19.39 | -17.31 | -13.9 | -0.2475 |
| 27 | `CCCn1nc2c(cc1=O)CN(CC(=O)Nc1cc(C)no1)CC2` | -7.994 | 18.18 | 10.67 | -5.924 | 6.002 | 9.27 |
| 28 | `Cc1ccc(N2CCO[C@H]3CN(Cc4cccs4)C[C@H]32)nn1` | -7.12 | -0.9174 | - | 2.814 | - | 1.014 |
| 29 | `C[C@@H]1CN(C(=O)CCc2cnn(C)c2)CC[C@@]1(O)C1CCOCC1` | - | 21.92 | -21.87 | -11.55 | -0.6928 | 10.91 |
| 30 | `CC(C)C(CNC(=O)NCc1cc[nH]n1)N1CCOCC1` (stereo unspecified) | -19.27 | 16.51 | 18.92 | -29.96 | -8.177 | -0.5115 |
| 31 | `[H][C@@]12CCN(C(=O)C3CCOCC3)[C@]1([H])CCC(=O)N2Cc1csc(C)n1` | - | - | 49.68 | - | 10.38 | - |
| 32 | `CC(C)c1ncc2c(n1)CN(Cc1cccc3c1OCCO3)CC2` | -21.02 | 22.39 | 6.405 | -9.222 | -9.316 | 2.811 |
| 33 | `CCOc1cc(C)ccc1NC(=O)N(C)Cc1cnn(C)c1` | -22.85 | 42.86 | 21.42 | 5.284 | 10.17 | 0.8304 |
| 34 | `O=C(O)C(F)(F)F.[H][C@@]12OCCN(CCOCc3ccccc3)[C@@]1([H])CC[C@@H]2OC` | - | - | 15.45 | - | -6.03 | - |
| 35 | `O=C(CCN1CCOCC1)Nc1cccc(CNCc2cccs2)c1` | -27.39 | 9.326 | 12.43 | 5.107 | 3.328 | 4.713 |
| 36 | `CC(C)c1nnc2n1CC(CNCc1ccncc1)CC2` (stereo unspecified) | -3.535 | 16.35 | -8.395 | 8.08 | 0.4653 | -1.266 |

Once more, the final 4:

* CCOc1cc(C)ccc1NC(=O)N(C)Cc1cnn(C)c1 | Pks13 thioesterase: -22.85%; LiHisRS: 42.86%; Leishmania in macrophages: 21.42%; ClpP1P2: 5.284%; Toxoplasma: 10.17%; CoaBC: 0.8304%
* O=C(O)C(F)(F)F.[H][C@@]12OCCN(CCOCc3ccccc3)[C@@]1([H])CC[C@@H]2OC | Leishmania in macrophages: 15.45%; Toxoplasma: -6.03%
* O=C(CCN1CCOCC1)Nc1cccc(CNCc2cccs2)c1 | Pks13 thioesterase: -27.39%; LiHisRS: 9.326%; Leishmania in macrophages: 12.43%; ClpP1P2: 5.107%; Toxoplasma: 3.328%; CoaBC: 4.713%
* CC(C)c1nnc2n1CC(CNCc1ccncc1)CC2 (stereo unspecified) | Pks13 thioesterase: -3.535%; LiHisRS: 16.35%; Leishmania in macrophages: -8.395%; ClpP1P2: 8.08%; Toxoplasma: 0.4653%; CoaBC: -1.266%